From article PMC9905075 come the findings set out here.

By UniProt entry, the sequences of proteins in these tests, tags left out.
UniProt P31939: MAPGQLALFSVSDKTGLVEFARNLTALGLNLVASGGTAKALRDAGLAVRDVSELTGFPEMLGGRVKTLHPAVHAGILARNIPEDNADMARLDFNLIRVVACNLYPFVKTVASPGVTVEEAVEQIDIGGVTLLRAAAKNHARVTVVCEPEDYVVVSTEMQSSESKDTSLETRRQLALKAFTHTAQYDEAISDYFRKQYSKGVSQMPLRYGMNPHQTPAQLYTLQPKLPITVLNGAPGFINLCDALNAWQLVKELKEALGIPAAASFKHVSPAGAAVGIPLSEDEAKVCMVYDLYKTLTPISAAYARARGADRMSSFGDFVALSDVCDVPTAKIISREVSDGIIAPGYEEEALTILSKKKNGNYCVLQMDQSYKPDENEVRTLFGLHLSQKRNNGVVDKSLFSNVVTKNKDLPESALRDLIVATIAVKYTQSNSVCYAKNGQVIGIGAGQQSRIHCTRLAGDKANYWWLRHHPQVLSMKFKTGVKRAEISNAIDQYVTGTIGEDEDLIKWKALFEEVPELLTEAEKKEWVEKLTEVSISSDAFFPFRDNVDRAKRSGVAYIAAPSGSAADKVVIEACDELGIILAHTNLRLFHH
UniProt Q92831: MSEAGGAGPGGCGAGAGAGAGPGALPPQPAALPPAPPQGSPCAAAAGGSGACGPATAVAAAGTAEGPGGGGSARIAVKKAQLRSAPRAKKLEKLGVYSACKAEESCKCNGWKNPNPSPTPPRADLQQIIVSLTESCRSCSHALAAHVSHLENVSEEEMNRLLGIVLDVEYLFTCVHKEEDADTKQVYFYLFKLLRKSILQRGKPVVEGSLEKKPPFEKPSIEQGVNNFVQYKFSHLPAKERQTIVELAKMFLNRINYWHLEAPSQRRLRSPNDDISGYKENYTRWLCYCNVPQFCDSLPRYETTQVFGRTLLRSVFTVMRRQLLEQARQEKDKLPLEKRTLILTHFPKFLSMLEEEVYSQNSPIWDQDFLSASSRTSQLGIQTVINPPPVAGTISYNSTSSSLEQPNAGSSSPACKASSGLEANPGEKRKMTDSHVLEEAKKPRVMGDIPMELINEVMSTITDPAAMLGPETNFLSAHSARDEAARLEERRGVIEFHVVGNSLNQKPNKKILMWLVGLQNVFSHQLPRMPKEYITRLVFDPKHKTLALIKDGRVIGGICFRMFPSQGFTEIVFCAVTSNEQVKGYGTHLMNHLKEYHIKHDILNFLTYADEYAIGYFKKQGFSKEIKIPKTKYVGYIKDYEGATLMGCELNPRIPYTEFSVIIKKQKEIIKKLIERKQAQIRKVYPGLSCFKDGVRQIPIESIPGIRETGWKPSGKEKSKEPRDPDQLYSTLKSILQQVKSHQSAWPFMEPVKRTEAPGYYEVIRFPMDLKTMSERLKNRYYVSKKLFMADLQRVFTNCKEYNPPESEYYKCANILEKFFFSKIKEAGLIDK

Assay [1] has as its target 5-Aminoimidazole-4-Carboxamide Ribonucleotide Formyltransferase/IMP Cyclohydrolase (human (endogenous in CRC cells)) (UniProt P31939). As to the kind of experiment: co-IP; endogenous proteins in CRC cells; cells lysed in RIPA buffer with PMSF; co-IP and immunoblot.
Assay [2] addresses T1, Vitamin D receptor (human) (UniProt P11473).
T1 sequence: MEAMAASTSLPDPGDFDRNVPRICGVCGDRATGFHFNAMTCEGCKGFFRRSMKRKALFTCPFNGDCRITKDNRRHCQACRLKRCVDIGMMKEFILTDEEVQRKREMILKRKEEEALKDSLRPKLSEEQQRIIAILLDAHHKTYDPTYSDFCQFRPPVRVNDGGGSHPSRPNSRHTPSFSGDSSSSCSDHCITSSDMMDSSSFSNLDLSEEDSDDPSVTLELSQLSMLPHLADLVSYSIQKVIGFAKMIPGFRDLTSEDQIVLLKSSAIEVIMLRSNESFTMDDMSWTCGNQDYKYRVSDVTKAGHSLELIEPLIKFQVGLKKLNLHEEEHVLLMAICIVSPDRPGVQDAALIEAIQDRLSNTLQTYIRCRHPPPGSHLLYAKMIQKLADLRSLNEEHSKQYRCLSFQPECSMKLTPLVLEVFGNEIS
The assay is described as follows: co-IP; cells lysed in RIPA buffer with PMSF; co-IP and immunoblot; cells, bait and tags not told in the text (Fig. S2f-h).

Results are given in words; binding and its absence hold for the method and conditions named. In cells and extracts the contact can be indirect. Some results given as binding are weak or reduced against the parent protein; the word gives no strength.

As for “lysine acetyltransferase 2B (from UniProt Q92831 1-832) (enzyme)”, in assay [1], the binding result is listed as “binds”.

Turning to “p53 (wild type) (from UniProt P04637 1-393)”, in assay [2], the binding result is “binds”.
